Source: the supplement of paper PMC4604168 (melanoma cell lines)
Some of the results follow. Many values rest on one well or one pass, so single values are uncertain.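 Cells were imaged in 1,536-well plates, and nuclei stained with an antibody against cleaved PARP were counted against all DNA-stained nuclei to give the apoptosis fraction. Screening doses were chosen to leave most cells alive, and resting and induced cleaved-PARP levels differ strongly between cell lines.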

Legend:
Assay in all cases: cleaved PARP positive nuclei fraction relative to DMSO control; melanoma cells; higher = more apoptosis
Details in all cases: library dose: low library concentration; 72 h
[1] = test system: COLO792
[2] = test system: COLO800
[3] = test system: COLO829
[4] = test system: G361
[5] = test system: IPC-298
[6] = test system: IST-MEL1
[7] = test system: LB2518-MEL
[8] = test system: LOXIMVI
[9] = test system: MEL-HO
[10] = test system: MZ2-MEL
[11] = test system: MeWo
[12] = test system: RPMI7951
[13] = test system: RVH-421
[14] = test system: SkMel28
[15] = test system: SkMel2
[16] = test system: SkMel30
[17] = test system: SkMel5
[18] = test system: UACC257
[19] = test system: UACC62
[20] = test system: CBRC034 (line from a melanoma biopsy)

Row | Compound | cleaved PARP positive nuclei fraction [1] | cleaved PARP positive nuclei fraction [2] | cleaved PARP positive nuclei fraction [3] | cleaved PARP positive nuclei fraction [4] | cleaved PARP positive nuclei fraction [5] | cleaved PARP positive nuclei fraction [6] | cleaved PARP positive nuclei fraction [7] | cleaved PARP positive nuclei fraction [8] | cleaved PARP positive nuclei fraction [9] | cleaved PARP positive nuclei fraction [10] | cleaved PARP positive nuclei fraction [11] | cleaved PARP positive nuclei fraction [12] | cleaved PARP positive nuclei fraction [13] | cleaved PARP positive nuclei fraction [14] | cleaved PARP positive nuclei fraction [15] | cleaved PARP positive nuclei fraction [16] | cleaved PARP positive nuclei fraction [17] | cleaved PARP positive nuclei fraction [18] | cleaved PARP positive nuclei fraction [19] | cleaved PARP positive nuclei fraction [20]
1 | N#CC[C@H](C1CCCC1)n1cc(-c2ncnc3[nH]ccc23)cn1 [ruxolitinib] + CN(C)S(=O)(=O)c1ccc2c(c1)/C(=C/c1cc3c([nH]1)CCCC3)C(=O)N2 [SU6656] (first compound 1 µM, partner dose 0.4 µM) | 191% | 78.1% | 79.3% | 169% | 50.3% | 35% | 175% | 23.2% | 135% | 154% | 59.2% | 114% | 118% | 95.6% | 20.8% | 61.4% | 72.9% | 102% | 87.8% | 
2 | COc1cc([C@@H]2c3cc4c(cc3[C@@H](O[C@@H]3O[C@@H]5CO[C@@H](C)O[C@H]5[C@H](O)[C@H]3O)[C@H]3COC(=O)[C@H]23)OCO4)cc(OC)c1O [etoposide] + Cn1nnc2c(C(N)=O)ncn2c1=O [temozolomide] (first compound 0.02 µM, partner dose 2 µM) | 61.2% | 102% | 65.7% | 60.4% | 182% | 196% |  | 291% | 62.2% |  | 20.5% | 185% |  | 94% | 178% | 168% |  |  | 91.4% | 119%
3 | COc1cc([C@@H]2c3cc4c(cc3[C@@H](O[C@@H]3O[C@@H]5CO[C@@H](C)O[C@H]5[C@H](O)[C@H]3O)[C@H]3COC(=O)[C@H]23)OCO4)cc(OC)c1O [etoposide] + Nc1cccc2c1CN(C1CCC(=O)NC1=O)C2=O [lenalidomide] (first compound 0.02 µM, partner dose 1 µM) |  | 29% | 171% | 162% | 43% | 139% | 69.9% | 68.4% | 80.6% | 172% | 138% | 144% | 378% | 89.2% | 50.8% | 135% |  |  | 61.9% | 66%
4 | Cc1ccc(Nc2nccc(N(C)c3ccc4c(C)n(C)nc4c3)n2)cc1S(N)(=O)=O [Pazopanib] + O=C(Nc1cccc(Cl)c1)Nc1ncc(CCNc2ncnc3ccsc23)s1 [SNS314] (first compound 0.4 µM, partner dose 0.0008 µM) | 42.8% | 70.5% | 42.3% | 115% | 111% | 215% | 162% | 104% | 77% | 93.3% | 54.7% | 262% | 77.4% | 227% | 82.7% | 227% | 93.5% | 72.4% | 95.9% | 
5 | O=C(Nc1cc(C(F)(F)F)cc(C(F)(F)F)c1)c1cc(Cl)ccc1O + CC1(C)NC(=O)N(c2ccc([N+](=O)[O-])c(C(F)(F)F)c2)C1=O [nilutamide] (first compound 0.016 µM, partner dose 1 µM) | 68.7% | 52.4% | 135% | 85.1% | 48.8% | 55.4% | 68.9% | 94% | 65.1% | 26.1% | 85% | 246% | 171% | 107% | 92.6% | 66.1% | 76.4% | 126% | 124% | 
6 | O=C(Nc1cc(C(F)(F)F)cc(C(F)(F)F)c1)c1cc(Cl)ccc1O + Cn1cncc1[C@@](N)(c1ccc(Cl)cc1)c1ccc2c(c1)c(-c1cccc(Cl)c1)cc(=O)n2C [tipifarnib] (first compound 0.016 µM, partner dose 0.01 µM) | 155% | 109% | 59.7% | 15.5% | 180% | 37% | 59.5% | 61.7% | 67.4% | 45.3% | 196% | 125% | 86.9% | 73.3% | 189% | 143% | 212% | 130% | 285% | 
7 | Cc1ccc(Nc2nccc(N(C)c3ccc4c(C)n(C)nc4c3)n2)cc1S(N)(=O)=O [Pazopanib] + COc1cc2c(Oc3ccc4[nH]c(C)cc4c3F)ncnc2cc1OCCCN1CCCC1 [cediranib] (first compound 0.4 µM, partner dose 0.4 µM) | 72.9% | 38.1% | 90.8% | 214% | 57.8% | 232% | 367% | 55.5% | 45.3% | 80% | 33.2% | 95.8% | 74.2% | 118% | 29% | 72.9% | 71.4% | 130% | 78.5% | 
8 | Cc1cn(-c2cc(NC(=O)c3ccc(C)c(Nc4nccc(-c5cccnc5)n4)c3)cc(C(F)(F)F)c2)cn1 [nilotinib] + NCC(=O)Nc1ccc(-n2nc(C(F)(F)F)cc2-c2ccc3c(ccc4ccccc43)c2)cc1 [OSU03012] (first compound 0.2 µM, partner dose 1 µM) | 192% | 146% | 89.7% | 181% | 101% | 110% | 93.4% | 76.6% | 99.5% | 38% | 225% | 63.6% | 51.9% | 32.1% | 164% | 125% | 87.6% | 168% | 54.1% | 
9 | O=C(Nc1cc(C(F)(F)F)cc(C(F)(F)F)c1)c1cc(Cl)ccc1O + O=C(O)c1ccc(-c2c[nH]c3ncc(-c4ccccc4)cc23)cc1C1CCCC1 [GSK650394] (first compound 0.016 µM, partner dose 0.16 µM) | 103% | 114% | 86.2% | 36% | 96% | 35.5% | 93.7% | 41.3% | 193% | 104% | 78.8% | 114% | 71.9% | 89.3% | 125% | 69.6% | 152% | 107% | 82.3% | 
10 | N#CC[C@H](C1CCCC1)n1cc(-c2ncnc3[nH]ccc23)cn1 [ruxolitinib] + C=C(c1ccc(C(=O)O)cc1)c1cc2c(cc1C)C(C)(C)CCC2(C)C [Bexarotene] (first compound 1 µM, partner dose 2 µM) | 39.2% | 50.4% |  | 107% | 45.6% | 101% | 46% | 193% | 60.9% | 163% | 66.4% | 56.3% | 103% | 43.4% | 23.6% | 155% |  |  | 110% | 33.3%
11 | Cc1cc(Nc2cc(N3CCN(C)CC3)nc(Sc3ccc(NC(=O)C4CC4)cc3)n2)n[nH]1 [Tozasertib] + CC(C)(C)c1cnc(CSc2cnc(NC(=O)C3CCNCC3)s2)o1 [SNS-032] (first compound 0.006 µM, partner dose 0.01 µM) | 157% | 102% | 145% | 57.3% | 175% | 22.2% | 48.2% | 29.7% | 185% | 135% | 73.3% | 47.1% | 179% | 65.2% | 146% | 143% | 144% | 84.5% | 194% | 
12 | COc1cc([C@@H]2c3cc4c(cc3[C@@H](O[C@@H]3O[C@@H]5CO[C@@H](C)O[C@H]5[C@H](O)[C@H]3O)[C@H]3COC(=O)[C@H]23)OCO4)cc(OC)c1O [etoposide] + Nc1ncn([C@H]2C[C@H](O)[C@@H](CO)O2)c(=O)n1 [decitabine] (first compound 0.02 µM, partner dose 0.1 µM) |  | 64.8% | 86.7% | 161% | 66.3% | 150% | 111% | 104% | 219% | 64% | 119% | 66.1% | 58.8% | 50.4% | 122% | 72.3% |  |  | 142% | 94.7%
13 | Cc1cc(Nc2cc(N3CCN(C)CC3)nc(Sc3ccc(NC(=O)C4CC4)cc3)n2)n[nH]1 [Tozasertib] + O=C(Nc1cccc(Cl)c1)Nc1ncc(CCNc2ncnc3ccsc23)s1 [SNS314] (first compound 0.006 µM, partner dose 0.0008 µM) | 119% | 80.1% | 139% | 80.5% | 87.4% | 47.2% | 103% | 111% | 75.8% | 139% | 151% | 236% | 59.8% | 62.2% | 98.9% | 62.3% | 65.7% | 64.8% | 36.1% | 
14 | CC[C@]1(O)C[C@H]2CN(CCc3c([nH]c4ccccc34)[C@@](C(=O)OC)(c3cc4c(cc3OC)N(C=O)[C@H]3[C@@](O)(C(=O)OC)[C@H](OC(C)=O)[C@]5(CC)C=CCN6CC[C@]43[C@@H]65)C2)C1 [vincristine] + CC1(C)NC(=O)N(c2ccc([N+](=O)[O-])c(C(F)(F)F)c2)C1=O [nilutamide] (first compound 0.0001 µM, partner dose 1 µM) | 101% | 39% | 171% | 94.3% | 45.1% | 100% | 22.2% | 47.4% | 134% | 83.3% | 85.6% | 107% | 94.9% | 124% | 92.2% | 80.7% | 279% | 241% | 144% | 
15 | CC[C@]1(O)C[C@H]2CN(CCc3c([nH]c4ccccc34)[C@@](C(=O)OC)(c3cc4c(cc3OC)N(C=O)[C@H]3[C@@](O)(C(=O)OC)[C@H](OC(C)=O)[C@]5(CC)C=CCN6CC[C@]43[C@@H]65)C2)C1 [vincristine] + NC(=O)Nc1cc(-c2cccc(F)c2)sc1C(=O)N[C@H]1CCCNC1 [AZD7762] (first compound 0.0001 µM, partner dose 0.02 µM) | 132% | 75.8% | 94.4% | 72.1% | 61.4% | 126% | 30.5% | 130% | 30.7% | 92.4% | 34% | 124% | 146% | 440% | 152% | 351% | 88.9% | 290% | 579% | 
16 | Cc1cn(-c2cc(NC(=O)c3ccc(C)c(Nc4nccc(-c5cccnc5)n4)c3)cc(C(F)(F)F)c2)cn1 [nilotinib] + Cc1cc(N2CCOCC2)cc2[nH]c(-c3c(NC[C@@H](O)c4cccc(Cl)c4)cc[nH]c3=O)nc12 [BMS536924] (first compound 0.2 µM, partner dose 0.2 µM) | 130% | 84.9% | 76.3% | 146% | 49.3% | 50.4% | 111% | 163% | 77.2% | 120% | 75.1% | 51% | 97.2% | 54.1% | 86.8% | 91% | 192% | 78.3% | 122% | 
17 | COc1cc([C@@H]2c3cc4c(cc3[C@@H](O[C@@H]3O[C@@H]5CO[C@@H](C)O[C@H]5[C@H](O)[C@H]3O)[C@H]3COC(=O)[C@H]23)OCO4)cc(OC)c1O [etoposide] + Cn1cnc2c(F)c(Nc3ccc(Br)cc3Cl)c(C(=O)NOCCO)cc21 [selumetinib] (first compound 0.02 µM, partner dose 0.015 µM) | 105% | 106% | 36.7% | 164% |  | 282% | 230% | 124% | 90% | 234% | 31.2% | 24.1% | 745% | 58.8% | 154% | 69.8% |  |  | 88.2% | 632%

Two entries from above in a different format:
Row	Compound	cleaved PARP positive nuclei fraction [1]	cleaved PARP positive nuclei fraction [2]	cleaved PARP positive nuclei fraction [3]	cleaved PARP positive nuclei fraction [4]	cleaved PARP positive nuclei fraction [5]	cleaved PARP positive nuclei fraction [6]	cleaved PARP positive nuclei fraction [7]	cleaved PARP positive nuclei fraction [8]	cleaved PARP positive nuclei fraction [9]	cleaved PARP positive nuclei fraction [10]	cleaved PARP positive nuclei fraction [11]	cleaved PARP positive nuclei fraction [12]	cleaved PARP positive nuclei fraction [13]	cleaved PARP positive nuclei fraction [14]	cleaved PARP positive nuclei fraction [15]	cleaved PARP positive nuclei fraction [16]	cleaved PARP positive nuclei fraction [17]	cleaved PARP positive nuclei fraction [18]	cleaved PARP positive nuclei fraction [19]	cleaved PARP positive nuclei fraction [20]
14	CC[C@]1(O)C[C@H]2CN(CCc3c([nH]c4ccccc34)[C@@](C(=O)OC)(c3cc4c(cc3OC)N(C=O)[C@H]3[C@@](O)(C(=O)OC)[C@H](OC(C)=O)[C@]5(CC)C=CCN6CC[C@]43[C@@H]65)C2)C1 [vincristine] + CC1(C)NC(=O)N(c2ccc([N+](=O)[O-])c(C(F)(F)F)c2)C1=O [nilutamide] (first compound 0.0001 µM, partner dose 1 µM)	101%	39%	171%	94.3%	45.1%	100%	22.2%	47.4%	134%	83.3%	85.6%	107%	94.9%	124%	92.2%	80.7%	279%	241%	144%	
15	CC[C@]1(O)C[C@H]2CN(CCc3c([nH]c4ccccc34)[C@@](C(=O)OC)(c3cc4c(cc3OC)N(C=O)[C@H]3[C@@](O)(C(=O)OC)[C@H](OC(C)=O)[C@]5(CC)C=CCN6CC[C@]43[C@@H]65)C2)C1 [vincristine] + NC(=O)Nc1cc(-c2cccc(F)c2)sc1C(=O)N[C@H]1CCCNC1 [AZD7762] (first compound 0.0001 µM, partner dose 0.02 µM)	132%	75.8%	94.4%	72.1%	61.4%	126%	30.5%	130%	30.7%	92.4%	34%	124%	146%	440%	152%	351%	88.9%	290%	579%	
